In article PMC7413538:
These are yes or no findings as the source states them, for the method shown. Some binding calls cover weakened binding; strength is not graded here. Sequences can lack the tags named with a protein.

By UniProt entry, the sequences of proteins in these tests, tags left out. Where a name states a change or a piece, a line headed by the entry shows the natural chain unless it says otherwise.
UniProt Q00651: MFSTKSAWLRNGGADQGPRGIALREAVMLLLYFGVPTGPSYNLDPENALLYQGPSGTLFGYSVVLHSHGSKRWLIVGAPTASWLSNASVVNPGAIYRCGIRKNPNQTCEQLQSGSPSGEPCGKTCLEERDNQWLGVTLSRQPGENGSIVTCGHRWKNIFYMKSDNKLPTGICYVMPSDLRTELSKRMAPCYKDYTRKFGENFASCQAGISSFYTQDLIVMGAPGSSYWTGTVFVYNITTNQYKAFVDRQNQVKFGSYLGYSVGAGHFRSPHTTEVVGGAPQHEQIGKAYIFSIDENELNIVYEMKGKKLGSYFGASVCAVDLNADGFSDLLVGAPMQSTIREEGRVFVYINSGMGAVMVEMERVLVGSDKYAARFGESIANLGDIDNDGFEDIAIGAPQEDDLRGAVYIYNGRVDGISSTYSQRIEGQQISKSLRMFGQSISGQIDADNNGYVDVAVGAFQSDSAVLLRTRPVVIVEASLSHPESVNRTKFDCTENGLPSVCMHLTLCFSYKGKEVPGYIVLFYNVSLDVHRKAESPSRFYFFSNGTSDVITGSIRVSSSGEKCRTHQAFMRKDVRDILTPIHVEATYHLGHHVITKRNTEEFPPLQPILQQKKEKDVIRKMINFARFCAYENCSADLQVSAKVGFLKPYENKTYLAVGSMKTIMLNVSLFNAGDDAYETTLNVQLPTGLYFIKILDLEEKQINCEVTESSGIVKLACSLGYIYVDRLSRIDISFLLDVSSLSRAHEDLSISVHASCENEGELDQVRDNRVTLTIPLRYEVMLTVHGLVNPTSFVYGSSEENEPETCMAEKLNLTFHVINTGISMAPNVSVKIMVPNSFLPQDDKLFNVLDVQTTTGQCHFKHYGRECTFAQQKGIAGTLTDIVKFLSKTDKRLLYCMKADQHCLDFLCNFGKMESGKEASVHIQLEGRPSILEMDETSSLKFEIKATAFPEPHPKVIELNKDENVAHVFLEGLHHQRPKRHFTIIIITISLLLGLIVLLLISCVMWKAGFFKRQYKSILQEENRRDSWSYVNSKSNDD
UniProt P26011: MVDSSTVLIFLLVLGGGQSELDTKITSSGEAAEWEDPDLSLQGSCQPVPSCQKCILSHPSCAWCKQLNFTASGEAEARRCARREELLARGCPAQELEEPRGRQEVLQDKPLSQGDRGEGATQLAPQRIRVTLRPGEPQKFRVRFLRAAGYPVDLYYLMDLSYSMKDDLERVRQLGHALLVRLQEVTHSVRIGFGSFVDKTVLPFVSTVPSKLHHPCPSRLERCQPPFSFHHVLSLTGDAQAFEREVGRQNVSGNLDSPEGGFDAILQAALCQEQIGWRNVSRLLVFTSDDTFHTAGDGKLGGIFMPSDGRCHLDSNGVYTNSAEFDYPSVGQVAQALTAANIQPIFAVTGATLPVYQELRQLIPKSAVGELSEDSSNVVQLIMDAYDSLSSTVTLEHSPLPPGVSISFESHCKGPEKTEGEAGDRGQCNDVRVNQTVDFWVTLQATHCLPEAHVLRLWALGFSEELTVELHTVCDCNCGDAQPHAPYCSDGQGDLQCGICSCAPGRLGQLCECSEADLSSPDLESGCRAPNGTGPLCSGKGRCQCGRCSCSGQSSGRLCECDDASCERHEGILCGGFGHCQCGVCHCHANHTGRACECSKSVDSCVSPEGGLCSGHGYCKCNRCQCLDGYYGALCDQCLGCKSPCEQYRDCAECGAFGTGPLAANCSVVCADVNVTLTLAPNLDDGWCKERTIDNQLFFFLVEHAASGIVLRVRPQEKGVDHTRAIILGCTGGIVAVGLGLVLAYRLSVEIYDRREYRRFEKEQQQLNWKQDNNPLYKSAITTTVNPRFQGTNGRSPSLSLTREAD

Key:
[1] = target: T1, α4β7 integrin on wild-type BAF (Ba/F3) cells (mouse (endogenous in Ba/F3)) (UniProt Q00651+P26011); assay: flow cytometry on cells; wt BAF cells (2 x 10^5 in 50 μl) incubated with mouse MAdCAM-1-Fc (30 μg/ml) in HBSS, 0.1% BSA, 0.5 mM MnCl2; detected with APC anti-human IgG Fc; fluorescence normalised to anti-β7 (FIB504); only the binder purified
[2] = target: T1, α4β7 integrin on wild-type BAF (Ba/F3) cells (mouse (endogenous in Ba/F3)); assay: flow cytometry on cells; wt BAF cells (2 x 10^5 in 50 μl) incubated with mouse MAdCAM-1-Fc (30 μg/ml) in HBSS, 0.1% BSA, 1 mM CaCl2, 1 mM MgCl2; detected with APC anti-human IgG Fc; fluorescence normalised to anti-β7 (FIB504); only the binder purified
[3] = target: α4β7 integrin with PA-tag insertion mutant PAins 2 of the β7 chain, on β7-knockout BAF cells (mouse (endogenous in Ba/F3) | murine) (UniProt Q00651+P26011); assay: flow cytometry on cells; PAins2 BAF cells (control, Rap1V12, Spa-1-expressing, Rap1a/b knock-down) incubated with soluble MAdCAM-1-Fc in the presence or absence of CXCL12; fluorescence normalised to anti-β7 (FIB504); only the binder purified

binding [1]: binds | binding [2]: binds weakly | binding [3]: binds
B1: mouse MAdCAM-1-Fc (Fc fusion, UniProt Q61826 22-364)
chain: QSFQVNPPESEVAVAMGTSLQITCSMSCDEGVARVHWRGLDTSLGSVQTLPGSSILSVRGMLSDTGTPVCVGSCGSRSFQHSVKILVYAFPDQLVVSPEFLVPGQDQVVSCTAHNIWPADPNSLSFALLLGEQRLEGAQALEPEQEEEIQEAEGTPLFRMTQRWRLPSLGTPAPPALHCQVTMQLPKLVLTHRKEIPVLQSQTSPKPPNTTSAEPYILTSSSTAEAVSTGLNITTLPSAPPYPKLSPRTLSSEGPCRPKIHQDLEAGWELLCEASCGPGVTVRWTLAPGDLATYHKREAGAQAWLSVLPPGPMVEGWFQCRQDPGGEVTNLYVPGQVTPNSSS
